Results on one sequence are retold here after publication PMC5368982.

Construct, isoform or probe ends are uncertain for at least one entry. At least one verdict rests on a figure or table, not on a statement of the authors.

The series deals with SLBP (histone stem-loop binding protein) (UniProt Q14493). The series is described as follows: EMSA. To be noted: with T-1 trigger; none; EMSA: 1x NT2 buffer, 1 mM DTT, RNaseOUT, 50 uL, room temperature 1 h, 1.25 ug SLBP (~37 pmol), native 8% PAGE in 1x TB; recombinant protein. (Mobility shift assays separate free from complexed probe on a gel.)

Take “GGGCAAACACCAUUGUCAAAAGGCUCUUUUCAGAGCCACACUCCA / UGGAGUGUGACAAUGGUGUUUG [B-1a + T-1 (trans-3WJ)]”: the binding result was “binds”.
